This passage reports AC50 and cell number change results from PubChem BioAssay AID2685 (National Center for Advancing Translational Sciences (NCATS), 2010).

A word on the AC50: it is the midpoint of the concentration-response curve, whichever way the signal moves. A higher AC50 goes with activity only at high concentration.

A short description of this assay: qHTS Assay for Lipid Storage Modulators in Drosophila S3 Cells.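 As to cell number change: cells counted by Cell Tracker Red CMTPX staining in the red channel.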 To be noted: BODIPY lipid droplet fluorescence, 18-24 h; for cell number change: measured here: cell count max response, cells fed with added oleic acid. In short, it runs like this: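 Drosophila S3 cells got compounds at several concentrations plus oleic acid (400 uM solution). Laser-scanning cytometry with 488 nm excitation read lipid droplets at 500-530 nm and cells at 575-640 nm. Percent activity was relative to 20 uM Triacsin C.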
A general note: In qHTS, concentration-response curves come from the screen itself.

Setting [1] is: measured here: cell number channel AC50, cells fed with added oleic acid.
Where [2] appears, read: measured here: lipid fluorescence (Fed channel) AC50, cells fed with added oleic acid.

The other results are listed elsewhere or left out. The main result of the screen is listed elsewhere. These columns were measured beside it and carry no call. Most of these compounds were active or inconclusive in the main read-out, so they are no random draw. Words in brackets tell the shape of the fitted curve; partial curves, single points and poor fits give uncertain potencies.

Consider `Cc1occc1-c1nnc(SCC(=O)NC2(C#N)CCCC2)n1C`, for which the AC50 runs as follows: under setting [1], 0.13 µM [falling, partial curve, poor fit]; under setting [2], 18.4 µM [falling, partial curve].

As for `COc1ccc(NC(=O)CCNS(=O)(=O)c2cccc3nsnc23)c(OC)c1`, the cell number change was found to be 7.92%.

For `COc1cc2c(cc1NC(=S)NC(=O)c1c(OC)cccc1OC)oc1ccccc12`, the cell number change was -36%. Also, the AC50 under setting [1] is 3.26 µM [falling, full curve]. Further, the AC50 under setting [2] was 3.26 µM [falling, single point].

As to `O=C(OCC(=O)N1CCCC1)c1ccco1`, the cell number change was -15%. Also, under setting [2], the AC50 was 0.164 µM [falling, full curve].

For the compound `Cc1c(NC(=O)CSC2=C(C#N)C(c3ccccc3F)CC(=O)N2)c(=O)n(-c2ccccc2)n1C` (configuration not stated), the cell number change was 29%. Moreover, the AC50 under setting [2] was 0.731 µM [rising, partial curve].

For `S=c1[nH]nc(COc2ccccc2)n1/N=C/c1ccc(Cl)cc1Cl`, the cell number change is -38.3%. For the same compound, the AC50 under setting [1] was 29.1 µM [falling, single point].

Regarding `O=C(CCc1ccccc1)Nc1cccnc1Cl`, the cell number change is -2.99%. Moreover, the AC50 under setting [2] is 0.103 µM [falling, full curve, poor fit].

Take `CCCCn1c(N)c(N(CC(C)C)C(=O)C2CCN(C(=O)c3ccc(F)cc3)CC2)c(=O)[nH]c1=O`: the cell number change was -9.91%. Besides, the concentration at half-maximal activity (AC50) under setting [2] is 0.58 µM [falling, single point].

For `Cn1c(=O)[nH]c(=O)c2c1nc(Br)n2CC(O)COc1ccccc1` (configuration not stated), the cell number change was -0.249%. For the same compound, the AC50 under setting [2] is 4.61 µM [rising, partial curve, poor fit].

Regarding `CCCc1cc(=O)n2[nH]c(C)c(-c3ccccc3)c2n1`, the cell number change was determined as 0.0698%. In addition, the AC50 under setting [2] was 0.206 µM [falling, full curve].

On to `COC(=O)C1=C(C(=O)OC)SC(=C2C(=S)C(C)(C)N(C(=O)CC(C)C)c3ccccc32)S1`, for which the cell number change was -162%. Further, the AC50 under setting [1] is 13 µM [falling, partial curve].

With `COc1ccccc1/C=N\Nc1ccccc1[N+](=O)[O-]`, the cell number change was -65.8%. Moreover, under setting [1], the AC50 was 0.231 µM [falling, full curve]. Moreover, the AC50 under setting [2] was 0.184 µM [falling, full curve].

On to `CC(=O)c1cn(CC(=O)NCc2ccco2)c2ccccc12`, for which the cell number change is -1.79%. Under setting [2], the AC50 is 6.51 µM [falling, single point].

Consider `COc1ccc(Nc2nc(Nc3ccc(OC)cc3)nc(-n3[nH]c(=O)c(C)c3C)n2)cc1`, for which the cell number change was -58.8%. Further, the AC50 under setting [1] is 32.6 µM [falling, single point]. In addition, the AC50 under setting [2] is 32.6 µM [falling, single point].

As to `CCOc1ccccc1N1CCN(CC(=O)Nc2nc(C)c(C(=O)N(C)C)s2)CC1`, the cell number change is -1.72%. The AC50 under setting [2] is 6.51 µM [falling, single point].

In the case of `COCCCNC(=S)NNC(=O)c1ccc2c(c1)OCO2`, the cell number change is 25.7%. The AC50 under setting [2] is 29.1 µM [rising, single point].

Turning to `O=C(O)c1ccc(Nc2cnc3ccccc3n2)cc1`, the cell number change amounted to 9.04%. Besides, the AC50 under setting [2] was 3.66 µM [falling, single point].

For the compound `O=C(/C=C/c1ccccc1)CC(O)(c1ccccc1)C(F)(F)C(F)F` (configuration not stated), the cell number change is -0.396%. Under setting [1], the AC50 is 1.3 µM [falling, full curve, poor fit]. Also, the AC50 under setting [2] is 6.51 µM [falling, single point].

For the compound `O=C1C(Cl)=C(Nc2ccccc2O)C(=O)N1c1ccccc1`, the cell number change is -0.952%.

With `Cc1ccc(NC(=O)CSc2nc3ccccc3c(=O)n2CCCC(=O)NCC2CCCO2)cc1` (configuration not stated), the AC50 under setting [2] is 1.03 µM [falling, full curve].

`CC(=O)c1ccccc1NC(=O)COC(=O)/C=C/c1cccs1`: the cell number change was determined as 37.3%. The AC50 under setting [1] was 14.6 µM [rising, single point].

Turning to `COc1ccccc1CN(C)C(=O)c1sccc1-c1ccccc1`, the cell number change was -8.8%. Besides, the AC50 under setting [2] is 1.46 µM [rising, full curve, poor fit].

As to `COC(=O)Nc1ccc(S(=O)(=O)NC2CCCCC2)cc1`, the cell number change is -1.7%. The half-maximal activity concentration (AC50) under setting [1] was 0.146 µM [rising, full curve, poor fit].

For `CCc1ccc(C(=O)CSc2n[nH]c(C)n2)cc1`, the cell number change amounted to 2.95%. Moreover, the AC50 under setting [2] was 1.64 µM [rising, single point].

On to `CCOC(=O)C1(Cc2ccccc2C(F)(F)F)CCN(CCCn2cccn2)CC1`, for which the cell number change was -2.86%. Also, the half-maximal activity concentration (AC50) under setting [2] is 1.3 µM [falling, partial curve].

Consider `CC(C)c1ccc(C2(C)NC(=O)N(CC(=O)N3CCN(C(=O)c4cccs4)CC3)C2=O)cc1` (configuration not stated), for which the cell number change was -18.6%. Also, the AC50 under setting [2] was 6.51 µM [falling, single point].

As for `CCOC(=O)c1ccccc1NC(=O)Cn1cnc2c(cnn2-c2ccccc2)c1=O`, the cell number change came out at 10.2%. Also, the AC50 under setting [1] is 1.03 µM [rising, full curve].

`Cc1cccc(C(=O)OCC(=O)NC(=O)NCc2ccccc2)c1`: the cell number change is -37.4%. For the same compound, the AC50 under setting [1] is 0.184 µM [falling, full curve]. Further, the AC50 under setting [2] was 1.3 µM [falling, full curve].

With `COc1cccc(/C=N/NC(=O)CCn2c3ccccc3c3ccccc32)c1`, the cell number change was -19.9%. Besides, the AC50 under setting [2] is 20.6 µM [falling, single point].

Regarding `S=C(/N=c1/sccn1Cc1ccccc1)NC1CC1`, the AC50 under setting [2] is 18.4 µM [falling, single point].

Consider `CN(C)/C=N/c1nc2ccc3c(c2s1)CCCC3`, for which the cell number change is 11.5%. Moreover, the concentration at half-maximal activity (AC50) under setting [2] is 0.517 µM [rising, single point].

`COc1ccc(/C=C/C(=O)OCC(=O)N2CCCC2)c(OC)c1`: the cell number change was -2.89%. Under setting [1], the AC50 is 5.17 µM [falling, single point]. Besides, the AC50 under setting [2] was 3.66 µM [falling, single point].

Regarding `O=C(CSc1nnc(-c2ccccc2O)o1)N1CCCCC1`, the cell number change was 16.2%. Besides, under setting [1], the AC50 is 0.116 µM [rising, full curve, poor fit].

On to `COc1cc(OC)cc(C(=O)OCC(=O)NCc2ccco2)c1`, for which the cell number change was -29.9%. For the same compound, the AC50 under setting [1] was 1.46 µM [falling, full curve, poor fit]. Also, the AC50 under setting [2] is 0.259 µM [falling, full curve, poor fit].

`Cc1ccc(NC(=O)CCC(=O)NNC(=O)NC23CC4CC(CC(C4)C2)C3)cc1C`: the cell number change was -24.5%. Under setting [2], the AC50 is 29.1 µM [falling, single point].

In the case of `CC1CC(C)(C)NC(=S)N1CCC(=O)NCc1ccc(Cl)cc1` (configuration not stated), the cell number change amounted to 19.4%.

On to `Cc1ccc(S(=O)(=O)N2CCN(C(=O)CN3C(=O)NC4(CCCC4)C3=O)CC2)c(C)c1`, for which the cell number change was -32.2%. Further, under setting [1], the AC50 was 3.26 µM [falling, full curve]. Moreover, the AC50 under setting [2] was 3.26 µM [falling, full curve].

Consider `NC(=O)c1ccccc1NC(=O)CCN1C(=O)c2ccccc2C1=O`, for which the cell number change worked out at 0.766%.

Regarding `Cn1c(C(O)c2ccccc2)nc(Cl)c1Cl` (configuration not stated), the cell number change is -18.7%. Besides, the AC50 under setting [1] was 4.61 µM [falling, single point]. Moreover, the AC50 under setting [2] was 0.164 µM [falling, full curve, poor fit].

Take `O=C(COC(=O)c1ccc(Br)c(S(=O)(=O)N2CCOCC2)c1)NCC1CCCO1` (configuration not stated): the AC50 under setting [2] was 2.91 µM [falling, full curve].

As for `O=C(CSc1nc(=O)n(CCCN2CCOCC2)c2c1CCCC2)Nc1cccc([N+](=O)[O-])c1`, the cell number change amounted to 50%. Moreover, under setting [1], the AC50 was 6.51 µM [rising, single point].

`CCOC(=O)N1CCN(C(=O)CCN2C(=O)/C(=C\c3cccc(OC)c3)SC2=S)CC1`: the cell number change is 7.69%. In addition, the AC50 under setting [2] is 5.17 µM [rising, single point].

Take `CCc1nnc(NC(=O)c2ccc(COc3ccccc3C)o2)s1`: the cell number change was -5.13%. In addition, under setting [2], the AC50 is 29.1 µM [rising, partial curve, poor fit].

Turning to `Cc1ccccc1NC(=O)CN1C(=O)NC(C)(c2ccc3c(c2)OCO3)C1=O` (configuration not stated), the cell number change is 6.71%. Moreover, the AC50 under setting [1] was 0.164 µM [rising, full curve, poor fit]. Besides, the AC50 under setting [2] was 0.366 µM [rising, partial curve, poor fit].

With `CCCCc1nc2n[nH]c(N)c2c2c1CSC(C)(C)C2`, the cell number change is 14.7%. Besides, the AC50 under setting [1] was 0.146 µM [rising, full curve, poor fit].

Consider `COc1ccc(CNC(=O)c2c[nH]c3c(OC)cc(OC)cc3c2=O)cc1`, for which the cell number change worked out at 4.99%. Under setting [2], the half-maximal activity concentration (AC50) is 18.4 µM [falling, single point].

With `COc1ccc(-c2csc(NC(=O)CN3C(=O)NC4(CCCC4)C3=O)n2)c(OC)c1`, the AC50 under setting [2] is 23.1 µM [falling, partial curve, poor fit].

Regarding `Cc1ccccc1NC(=O)C(C)OC(=O)c1ccccc1C(=O)N(C)c1ccccc1` (configuration not stated), the cell number change worked out at 13.3%. Also, the AC50 under setting [2] was 2.06 µM [rising, partial curve].

On to `COc1cc(C2Nc3c(F)cccc3C3C=CCC32)cc(Br)c1OC` (configuration not stated), for which the cell number change was -50.7%.

In the case of `O=C(O)c1ccc(N2CCc3ccccc32)c([N+](=O)[O-])c1`, the cell number change was -0.758%. Also, under setting [2], the AC50 is 0.517 µM [falling, full curve, poor fit].

Turning to `N#Cc1ccccc1S(=O)(=O)N1CCN(C(=O)c2ccc(-n3cncn3)c([N+](=O)[O-])c2)CC1`, the cell number change worked out at 50%. Moreover, the AC50 under setting [1] was 29.1 µM [rising, single point].

`Cn1c(=O)n(Cc2ccccc2Cl)c(=O)c2c1[nH]c(=S)n2C`: the cell number change is -22%.

For `Fc1ccc(OCc2nc(-c3ccc(Br)o3)no2)c(F)c1`, the cell number change amounted to 6.17%.

For `O=C1COc2ccc(S(=O)(=O)N3CCCCCC3)cc2N1`, the cell number change was -13.9%.

In the case of `O=C(Nc1cc(Cl)cc(Cl)c1)N1CCCN(Cc2ccccc2)CC1`, the cell number change is -14.4%.

Take `Cc1nc(NC2=NCN(C3CCCCC3C)CN2)nc2ccccc12` (configuration not stated): the cell number change was -78.8%. Further, the AC50 under setting [1] is 32.6 µM [falling, partial curve]. Moreover, the half-maximal activity concentration (AC50) under setting [2] is 29.1 µM [falling, single point].

On to `Cc1ccc(/C=N\NC(=O)Cn2nnc3ccccc32)o1`, for which the cell number change turned out to be 47.7%. Besides, the AC50 under setting [1] is 11.6 µM [rising, partial curve, poor fit].

With `Cc1nc(N/N=C\c2ccc3c(c2)OCO3)sc1C`, the cell number change is -28.2%. The AC50 under setting [2] is 29.1 µM [falling, single point].

`CCc1nc2n[nH]c(N)c2c2c1CCCC2`: the cell number change is -40%. Further, the AC50 under setting [1] is 0.731 µM [falling, full curve]. Under setting [2], the AC50 is 29.1 µM [falling, single point].
